Laboratory results: PubChem BioAssay AID1508597 (Cure First, 2020)
Shown is an unselected part of the about 2,100 reagents, in one setting of the screen. 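Calls flag viability under 80% in either arm, not effects specific to rucaparib; the reference for percent is not stated.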 Not given: the 100% reference.

Aim: 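Survival screen with siRNA in ovarian cancer cells derived from patients, with or without rucaparib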 (primary screen)
System: human ovarian carcinoma lines grown from tumours: OCI-P5x (papillary serous) and OCI-C5x (clear cell)
Reagents: siRNA pool against human genes, 1.25 pmol siRNA per well
Time to read-out: 72 h or 96 h, depending on the cell culture
Treatment: rucaparib 20 µM (about IC30) or vehicle, present until read-out
Rucaparib or vehicle: Rucaparib
Cell line: OCI-C5x (clear cell)
Measurement: 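Luminescent ATP-based viability assay read 72 or 96 h after transfection, depending on culture, given as normalised percent viability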
Reading the numbers: viability, normalised: higher = more viable cells remaining
Rule for the call: 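Active when normalised viability falls below 80 percent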
Calls: active = viability under 80%; inactive = viability 80% or more

| Target gene | technical replicate | viability, normalised (%) | Call |
| --- | --- | --- | --- |
| WWTR1 (WW domain containing transcription regulator 1) | 1 | 45 | active |
| WWTR1 (WW domain containing transcription regulator 1) | 2 | 43.3 | active |
| WWTR1 (WW domain containing transcription regulator 1) | 3 | 60.8 | active |
| EED (embryonic ectoderm development) | 1 | 46.2 | active |
| EED (embryonic ectoderm development) | 2 | 23.8 | active |
| EED (embryonic ectoderm development) | 3 | 30.5 | active |
| MPP2 (MAGUK p55 scaffold protein 2) | 1 | 62 | active |
| MPP2 (MAGUK p55 scaffold protein 2) | 2 | 60 | active |
| MPP2 (MAGUK p55 scaffold protein 2) | 3 | 58 | active |
| SLC16A2 | 1 | 45.3 | active |
| SLC16A2 | 2 | 46.6 | active |
| SLC16A2 | 3 | 40.7 | active |
| INO80 (INO80 complex ATPase subunit) | 1 | 42.7 | active |
| INO80 (INO80 complex ATPase subunit) | 2 | 52.2 | active |
| INO80 (INO80 complex ATPase subunit) | 3 | 43 | active |
| ERCC5 (ERCC excision repair 5, endonuclease) | 1 | 44.1 | active |
| ERCC5 (ERCC excision repair 5, endonuclease) | 2 | 62.9 | active |
| ERCC5 (ERCC excision repair 5, endonuclease) | 3 | 58.6 | active |
| AIFM2 (AIF family member 2, ferroptosis suppressor) | 1 | 50.7 | active |
| AIFM2 (AIF family member 2, ferroptosis suppressor) | 2 | 55.4 | active |
| AIFM2 (AIF family member 2, ferroptosis suppressor) | 3 | 51.4 | active |
| MAP2K6 (mitogen-activated protein kinase kinase 6) | 1 | 81.9 | inactive |
| MAP2K6 (mitogen-activated protein kinase kinase 6) | 2 | 71.1 | active |
| MAP2K6 (mitogen-activated protein kinase kinase 6) | 3 | 75.4 | active |
| UBN1 (ubinuclein 1) | 1 | 45.9 | active |
| UBN1 (ubinuclein 1) | 2 | 27.6 | active |
| UBN1 (ubinuclein 1) | 3 | 38.2 | active |
| HIF1A (hypoxia inducible factor 1 subunit alpha) | 1 | 50.3 | active |
| HIF1A (hypoxia inducible factor 1 subunit alpha) | 2 | 45.5 | active |
| HIF1A (hypoxia inducible factor 1 subunit alpha) | 3 | 55.3 | active |
| H4C5 (H4 clustered histone 5) | 1 | 59.5 | active |
| H4C5 (H4 clustered histone 5) | 2 | 38.8 | active |
| H4C5 (H4 clustered histone 5) | 3 | 42 | active |
| ARID3A (AT-rich interaction domain 3A) | 1 | 72.6 | active |
| ARID3A (AT-rich interaction domain 3A) | 2 | 56.9 | active |
| ARID3A (AT-rich interaction domain 3A) | 3 | 44.5 | active |
| SRPK1 (SRSF protein kinase 1) | 1 | 73.9 | active |
| SRPK1 (SRSF protein kinase 1) | 2 | 75.1 | active |
| SRPK1 (SRSF protein kinase 1) | 3 | 30.6 | active |
